# Measurements taken from article PMC3268111.
# How the values were obtained:
# [1] = biological target: GST-PDZ1-2, GST fusion protein containing PDZ1-PDZ2 of hDlg (human); assay: pull-down; 40 μg GST-PDZ1-2 or 90 μg GST-α14 bound to 20 μl GSH-agarose beads, 8 μg peptide, 2 h at 4°C; washed with PBS-0.01% Triton X-100 and 50 mM Tris pH 7.6; eluted with 30% acetic acid; bound peptide detected by SELDI/MALDI-TOF on H4 ProteinChip arrays; both purified
# [2] = biological target: GST-α14, GST fusion protein containing the 14th repeat of α-spectrin; assay: as above
binding [1],binding [2],Binder
no binding (tested: 8 μg of peptides),,"RKTLGNRPPLVTTAQT [2RD, randomized version of the 2CT peptide sequence]"
,no binding (tested: 8 μg of peptides),"KTLRLNQPGTPTRTAV [2CT, peptide of the last 16 residues of human MEK2]"
no binding (tested: 8 μg of peptides),,"TIGLNQPSTPTHAAGV [1CT, peptide of the last 16 residues of human MEK1]"

# Results are given in words; binding and its absence hold for the method and conditions named.
